Results are given in words; binding and its absence hold for the method and conditions named. In cells and extracts the contact can be indirect. These calls come from enrichment with a bait or labelling near it, and not all partners need be listed. For some assays here: No binding means not detected with the bait. Where a sequence is shown, tags or fusion partners need not be part of it.
T1: N-terminally FLAG-tagged Psb34 (Synechocystis sp. PCC 6803) (UniProt P74067)
T1 sequence: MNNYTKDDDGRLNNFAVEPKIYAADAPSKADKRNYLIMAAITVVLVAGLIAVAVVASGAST

Sequences of proteins named here, by UniProt entry; tags and fusion partners are left off.
UniProt P05429: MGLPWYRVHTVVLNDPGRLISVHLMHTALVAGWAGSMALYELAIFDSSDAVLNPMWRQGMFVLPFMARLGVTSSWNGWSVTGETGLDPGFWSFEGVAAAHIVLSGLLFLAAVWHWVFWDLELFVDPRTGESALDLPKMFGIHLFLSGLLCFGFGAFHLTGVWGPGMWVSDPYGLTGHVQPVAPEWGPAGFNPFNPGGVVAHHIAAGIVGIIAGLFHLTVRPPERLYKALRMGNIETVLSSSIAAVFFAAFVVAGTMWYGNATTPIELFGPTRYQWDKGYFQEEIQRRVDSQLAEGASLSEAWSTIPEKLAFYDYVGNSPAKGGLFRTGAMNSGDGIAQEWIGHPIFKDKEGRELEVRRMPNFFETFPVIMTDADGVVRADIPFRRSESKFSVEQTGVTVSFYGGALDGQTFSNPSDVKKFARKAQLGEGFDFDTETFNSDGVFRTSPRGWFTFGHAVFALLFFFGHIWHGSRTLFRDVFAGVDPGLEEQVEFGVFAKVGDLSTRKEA
UniProt P14835: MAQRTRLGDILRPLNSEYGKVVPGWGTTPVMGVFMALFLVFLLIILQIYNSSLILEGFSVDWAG

T2: C-terminal FLAG-tagged Psb28 (Synechocystis sp. PCC 6803) (UniProt Q55356)
T2 sequence: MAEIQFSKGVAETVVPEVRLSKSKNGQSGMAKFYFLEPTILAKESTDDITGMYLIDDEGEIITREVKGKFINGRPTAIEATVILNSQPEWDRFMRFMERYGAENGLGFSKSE

B1: HliB (protein, UniProt P73429 1-70)
chain: MTSRGFRLDQDNRLNNFAIEPPVYVDSSVQAGWTEYAEKMNGRFAMIGFVSLLAMEVITGHGIVGWLLSL
B2: Psb28 (protein, UniProt Q55356 1-112)
chain: T2 sequence
B3: HliA (protein, UniProt P73183 1-70)
chain: MTTRGFRLDQDNRLNNFAIEPEVYVDSSVQAGWTKYAEKMNGRFAMIGFASLLIMEVVTGHGVIGWLNSL
B4: Psb27 (protein, UniProt P74367 25-134)
chain: CDSGTGLTGNYSQDTLTVIATLREAIDLPQDAPNRQEVQDTARGQINDYISRYRRKGDAGGLKSFTTMQTALNSLAGYYTSYGARPIPEKLKKRLQLEFTQAERSIERGV
B5: PsbO (protein, UniProt P10549 29-274)
chain: VDKSQLTYDDIVNTGLANVCPEISSFTRGTIEVEPNTKYFVSDFCMEPQEYFVKEEPVNKRQKAEYVKGKVLTRQTTSLEQIRGSIAVGADGTLTFKEKDGIDFQPITVLLPGGEEVPFFFTVKNFTGTTEPGFTSINSSTDFVGDFNVPSYRGAGFLDPKARGLYTGYDNAVALPSAADKFRTNKKETPLGKGTLSLQVTQVDGSTGEIAGIFESEQPSDTDLGAKEPLDVKVRGIFYGRVDTDV
B6: PsbV (protein, UniProt Q55013 26-160)
chain: VELTESTRTIPLDEAGGTTTLTARQFTNGQKIFVDTCTQCHLQGKTKTNNNVSLGLADLAGAEPRRDNVLALVEFLKNPKSYDGEDDYSELHPNISRPDIYPEMRNYTEDDIFDVAGYTLIAPKLDERWGGTIYF
B7: Psb34 protein (encoded by the ssl1498 gene) (protein, UniProt P74067 1-61)
chain: T1 sequence

The molecules below were run against T1, N-terminally FLAG-tagged Psb34 (Synechocystis sp. PCC 6803) (assay: affinity purification with mass spectrometry; FLAG-Psb34 pull-down (anti-FLAG M2 affinity gel) from β-DDM-solubilised membranes of FLAG-Psb34/∆Psb34 cells exposed to high light for 2 h; whole preparation acetone-precipitated, trypsin digest, LC-MS/MS).

binding	Molecule
no binding	Psb35 protein (Synechocystis sp. PCC 6803)
binds	CP47 (from UniProt P05429 1-507)
binds	CP43 (from UniProt P09193 1-460)
binds	PsbH (from UniProt P14835 1-64)
no binding	B1
binds	B2
no binding	B3
binds	B4
binds	B5
binds	B6

What follows are molecules tested against T2, C-terminal FLAG-tagged Psb28 (Synechocystis sp. PCC 6803) (assay: affinity purification with mass spectrometry; Psb28-FLAG preparation (isolated earlier, Bečková et al. 2017) separated by 2D-CN/SDS-PAGE, Coomassie Blue stain, designated proteins determined by MS; 0.5 µg Chl loaded).

binding	Molecule
binds	B7
